This series in a line: Odor of the obtained equimolar salt. Particulars: equimolar salt as obtained.

Regarding `COc1cc(C(O)C(=O)[O-])ccc1O.C[N+](C)(C)CCO` (centres unmarked) [Production Example 10], the Odor entry is reported as “◯ (Vanilla-like)”.
For the compound `COc1cc(C(O)C(=O)O)ccc1O.N=C(N)N` (centres unmarked) [Production Example 32], the Odor entry was “◯ (Vanilla-like)”.

The record behind these values is patent publication US20170239173A1, “TRANSDERMAL ABSORPTION ENHANCER AND TRANSDERMAL ABSORPTION ENHANCEMENT AID” (ASAHI KASEI KABUSHIKI KAISHA, priority 2014, published 2017).
